Results of single-concentration screens

A: 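Growth of Mycobacterium tuberculosis over 4 days (cholesterol / DPPC medium with tyloxapol); the read-out is not stated. Concentration: 500 µM. The record gives no direction; compounds that gave an IC50 in retests scored well above the rest, so higher reads as more growth inhibition. Of about 18,000 compounds tested this way, about 900 (5%) reached 50% or more in at least one test.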
B: 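Phenotypic screen: M. tuberculosis growth, glucose 7H9 medium, 3 days; the read-out is not stated. Compounds at 500 µM. The record gives no direction; compounds that gave an IC50 in retests scored well above the rest, so higher reads as more growth inhibition. Size under these conditions: about 18,000 compounds, about 1,400 of them at 50% or above in at least one test.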

Values are the deposited “Percent Effect”, in %. The record does not define 0% and 100%; most values in the screen are far below 50% and negative numbers occur (in some assays of this library far below -100). This is an unselected part of the compounds tested.

SMILES | A | B
CN(C)Cc1ccc(Oc2ncccc2C#N)cc1 | -5.689% | 31.06%
COc1ccc(OCCN(C)CCO)cc1 | 27.14% | 22.24%
CC(C)Cn1cncc1CNC(=O)CN1CCOCC1 | 7.957% | 9.13%
COc1ccccc1CC(=O)NCC(O)C(F)F (stereo unspecified) | 2.293% | 7.482%
CC[C@H](C)[C@H](N)C(=O)N(C)CCc1c(C)n[nH]c1C | -0.9431% | 4.307%
Cc1ccccc1CC(=O)OCCC(N)=O | -0.8557% | 13.46%
CS(=O)(=O)CCN1C[C@H](C2CC2)[C@@H](N)C1 | -2.909% | 7.643%
CC(Oc1ccc(F)cc1)C(=O)N1CCCN(C)CC1 (stereo unspecified) | 4.206% | 10.64%
NC(=O)N1CCCCCC1C1CCNCC1 (stereo unspecified) | -2.647% | -5.023%
O=C(c1ccccc1I)N1CCNCC1 | 0.5487% | 18.94%
Cn1ncc(N2CCCO2)c(Cl)c1=O | -2.016% | 2.498%
O=C(Nc1ccc(F)cc1Cl)N[C@@H]1CNCC[C@H]1O | -8.332% | 3.715%
c1ccc(CNCCCOc2ccccn2)nc1 | 18.54% | 24.79%
CC(=O)N1CCC(C(=O)c2ccc(C)cc2)CC1 | 32.13% | 57.76%
Cc1noc(CSc2ccc(C(=O)N3CCC3)cc2)n1 | 55.96% | 53.4%
CN1CCc2nc(NC(=O)c3cncc(Br)c3)sc2C1 | -4.042% | -11.23%
CCN(CC)C(=O)CN(C)C(=O)CN1CCC(C)CC1 | -0.1674% | 0.7646%
COCCCN(CCO)c1nccn2nc(C)cc12 | 8.768% | 39.03%
CC(c1nc(C2CC2)no1)N1CCn2ccnc2C1 (stereo unspecified) | 8.326% | 30.14%
Nc1nnc(SCCC(=O)Nc2ccc(Cl)cn2)s1 | 3.798% | 4.263%
CCCC(NC)c1ccccn1 (stereo unspecified) | -4.546% | -3.697%
CC(N)c1ccc(NC(N)=O)cc1 (stereo unspecified) | -3.315% | 2.237%
COCC(CN)c1ccc(Cl)cc1 (stereo unspecified) | 4.812% | 2.301%
CC(C)(C)OC(=O)N1CC(F)(F)CC1CO (stereo unspecified) | 59.36% | 13.41%
Cc1cc(NC(=O)NCCN(C)C(C)C)no1 | -5.797% | -5.635%
Cc1occc1-c1nnc(SCC(=O)NC2CC2)o1 | -8.93% | -0.09212%
CC(C)OCCC#N | -14.54% | -12.1%
Cc1ccc(C(=O)NC(C(N)=O)c2ccc(Cl)cc2)o1 (stereo unspecified) | 11.46% | 11.36%
Nc1cnn(-c2ncccc2Br)c1 | 15.75% | 40.68%
COc1cc(Cl)c(CNC(C)(CO)CO)cc1Cl | -18.08% | -22.44%
CC(=O)Nc1ccc(C(=O)N(C)c2ccccc2)s1 | 39.11% | 47.57%
O=C(CCc1ccncc1)Nc1cncc(Br)c1O | 1.897% | 13.21%
N#CCCCN1CCN(Cc2cccc(O)c2)CC1 | -1.636% | 3.28%
CNCc1cccc(O)c1 | 16.2% | 4.15%
CC(CC(=O)N1CCNCC1)c1ccccc1 (stereo unspecified) | 12.93% | 19.65%
Cc1cc(NC(C)c2ccccn2)n2ncnc2n1 (stereo unspecified) | 3.5% | 28.4%
Cc1nn(CC(=O)N[C@H]2C[C@@H]3OCC[C@H]23)c(C)c1Cl | 6.79% | -2.864%
CC(C)CNC1CCS(=O)(=O)C1 (stereo unspecified) | 3.812% | 1.281%
NC(=O)NCC(=O)Nc1cccc(C2SCCS2)c1 | 0.4668% | 7.311%
COCCn1ccnc1CN1CCN(C)C(CO)C1 (stereo unspecified) | 7.287% | 13.1%
COCCC(=O)N1C[C@@H](CO)[C@H](N(C)C)C1 | -9.022% | -4.655%
CCn1cc(NC(=O)c2ccc(C)n2C)cn1 | 9.302% | 30.17%
c1cc(C2CNCCO2)nc(N2CCCC2)n1 (stereo unspecified) | 4.342% | 24.42%
Cc1nc(CN)no1 | 7.479% | 11.68%

For reference, 3 entries once more:

For CCCC(NC)c1ccccn1 (stereo unspecified) the result was A: -4.546%; B: -3.697%.
For NC(=O)NCC(=O)Nc1cccc(C2SCCS2)c1 the result was A: 0.4668%; B: 7.311%.
For CC(=O)N1CCC(C(=O)c2ccc(C)cc2)CC1 the result was A: 32.13%; B: 57.76%.

Source: ChEMBL document CHEMBL3988442, “University of Dundee, Small-Polar-MMV Screening Library” (2021).